# Screen size: about 350,000 compounds; about 6,000 (1.7%) were called active. The shares of active, inactive and inconclusive entries below differ from those in the screen. Cut-off read from the data, not from the text of the source: active = CPE inhibition above about 20% (passing the limit was not always enough); inconclusive = no clear call, values can overlap the other calls; tested in BHK-21 cells.
# Experiment: protection of cells from dengue 2 killing – plate reader, single concentration, primary screen (AID 651640);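 note: 0% = median of neutral control wells and 100% = median of positive control wells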
# Conditions: DENV2-infected cells, cytopathic effect rescue, at 9.99 µM, active compounds read high
row,Structure (SMILES),CPE inhibition
1,CC(=O)Nc1ccc(S(=O)(=O)NCC(=O)OCC(=O)NC(=O)c2cccn2C)cc1,inconclusive: 44.3%
2,C[C@H]1CN([C@@H](C)CO)C(=O)c2cc(C#Cc3cccnc3)cnc2O[C@H]1CN(C)Cc1ccc(F)cc1,inconclusive: 23.6%
3,COC(=O)C[C@@H]1OC[C@H](Cc2ccccc2)N1S(=O)(=O)c1ccc(C)cc1,active: 20.6%
4,O=C(C[C@H]1C=C[C@@H](NC(=O)c2ccncc2)[C@@H](CO)O1)NCC1CCCCC1,inactive: -3.89%
5,Cc1cc(C)cc(NC(=O)NC2CCN(CC(=O)Nc3cccc(Cl)c3C)CC2)c1,inactive: -4.01%
6,COC(=O)C1=C(C(=O)OC)[C@@H]2N(C)c3ccccc3[C@@]23C[C@@H](C(=O)OC)N(C(=O)c2cccs2)C3=N1,inconclusive: 40.6%
7,C[C@H]1CN([C@@H](C)CO)C(=O)c2cc(NS(=O)(=O)c3ccc(F)cc3)ccc2O[C@@H]1CN(C)S(=O)(=O)c1ccc(Cl)cc1,inconclusive: 22.4%
8,OCCNc1nc(Nc2ccccc2OC(F)(F)F)nc(N2CCCC2)n1,inconclusive: 20.6%
9,O=C(C[n+]1cc(-c2ccc(Cl)cc2)n2c1CCCCC2)c1ccccc1,inactive: 0.369%
10,C#CCOCCOCCOCCNc1nc(N2CCN(C(=O)Cn3cc(CCO)nn3)CC2)nc(N2CCN(C(=O)[C@H](C)n3cc(CCCN=C(N)N)nn3)CC2)n1,inconclusive: 79.9%
11,C[C@H]1CN([C@@H](C)CO)C(=O)c2cccc(NS(=O)(=O)c3ccccc3)c2O[C@H]1CN(C)Cc1ccc(C(F)(F)F)cc1,active: 78%
12,COc1c(Cl)cc(C(=O)Nc2cccnc2)cc1Cl,inconclusive: 32.2%
13,COC(=O)[C@H](CC(C)C)N1Cc2cc(OC)cc(OC)c2-c2ccccc2S1(=O)=O,inactive: 9.47%
14,CC(=O)NC(Cc1ccccc1)C(=O)Oc1ccc2ccccc2c1 (stereo unspecified),inconclusive: 22.8%
15,C[C@@H]1CN([C@H](C)CO)C(=O)c2cc(NC(=O)c3ccncc3)ccc2O[C@@H]1CN(C)C(=O)Nc1ccc(F)cc1,inconclusive: 29.4%
16,C[C@@H]1CCCCO[C@@H](CN(C)S(=O)(=O)c2ccccc2)[C@@H](C)CN([C@H](C)CO)C(=O)c2cc(NC(=O)c3ccncc3)ccc2O1,inactive: -7.29%
17,O=C(Nc1cc(Cl)ccc1-n1cncn1)c1ccc([N+](=O)[O-])o1,inactive: -4.33%
18,Cc1ccc(S(=O)(=O)Nc2cccc3c2O[C@@H](CN(C)S(=O)(=O)c2ccc(F)cc2)[C@H](C)CN([C@@H](C)CO)C3=O)cc1,inactive: -5.55%
19,CC(=O)N(C)C[C@H]1Oc2ncc(-c3ccc(C)cc3)cc2C(=O)N([C@H](C)CO)C[C@@H]1C,inconclusive: 27.9%
20,O=C(Nc1ccc2c(c1)OCO2)c1cccc2c1C(=O)N(C1CCCCC1)C2,inactive: 0.883%
21,C/C(=N\Nc1nc(N2CCOCC2)nc(N2CCOCC2)n1)c1cccc([N+](=O)[O-])c1,inconclusive: 24.8%
22,CCOC(=O)N1CCN(c2c(NCCCN(C)c3ccccc3)c(=O)c2=O)CC1,inconclusive: 34.6%
23,O=C(c1cccc(S(=O)(=O)NCc2ccccc2)c1)N1CCCCC1,inconclusive: 45.8%
24,CCCNC(=O)N1CC2(CN(C(=O)c3cccnc3)C2)c2c([nH]c3cc(OC)ccc23)[C@@H]1CO,inactive: -18%

row,Structure (SMILES),CPE inhibition
1,CC(C(=O)Nc1ccc(S(=O)(=O)N2CCCC2)cc1)N1CCN(c2ccccc2O)CC1 (stereo unspecified),inconclusive: 22%
2,C[C@@H]1CN([C@@H](C)CO)C(=O)Cc2cc(NC(=O)NC3CCCCC3)ccc2O[C@H]1CN(C)Cc1ccc(C(=O)O)cc1,inactive: -2.31%
3,O=c1ccc(S(=O)(=O)N2CCCC2)cn1Cc1ccc(Cl)cc1Cl,inconclusive: 36.5%
4,COc1cccc(N(C(=O)c2ccco2)C(C(=O)NC2CCCC2)c2ccc(N3CCOCC3)cc2)c1 (stereo unspecified),inconclusive: 21.6%
5,CCC(=O)N1CC2(C1)[C@H](c1ccc(-c3ccccc3)cc1)[C@@H](CO)N2C(C)=O,inactive: -4.77%
6,CCOC(=O)Cc1sc(N)nc1C,active: 40.9%
7,OC[C@@H]1CN(Cc2ccc(Cl)cc2)C[C@H](n2cnc3c(N4CCN(c5ccccc5)CC4)ncnc32)O1,inconclusive: 26.2%
8,CCOc1ccc(NC(=O)CNC(=O)c2cccs2)cc1,inconclusive: 43.5%
9,C[C@@H]1CCCCO[C@H](CN(C)C(=O)Nc2ccc(C(F)(F)F)cc2)[C@@H](C)CN([C@H](C)CO)C(=O)c2cc(NS(=O)(=O)c3ccccc3)ccc2O1,active: 37.2%
10,C[C@@H]1CCCCO[C@@H](CN(C)Cc2ccc(C(=O)O)cc2)[C@@H](C)CN([C@@H](C)CO)C(=O)c2cc(NC(=O)C3CCCCC3)ccc2O1,active: 38.5%
11,Cc1ccc(S(=O)(=O)Nc2ccc3c(c2)CC(=O)N([C@H](C)CO)C[C@@H](C)[C@H](CN(C)Cc2ccc(Oc4ccccc4)cc2)O3)cc1,active: 58.5%
12,O=C1CCCN2N=C(SCC(=O)Nc3ccc(Br)cc3)SC2=N1,inconclusive: 31.6%
13,O=C(NCCc1ccccc1)[C@@H]1[C@@H](CO)[C@@H]2Cn3c(cccc3=O)[C@@H]2N1Cc1ccncc1,inactive: 1%
14,Nc1[nH]c(C(=O)c2ccccc2)c(-c2ccc3c(c2)OCO3)c1C(=O)NCCc1c[nH]c2ccccc12,inconclusive: 38.7%
15,COc1cccc(NC(=O)CN(C)C(=O)c2cc(C)on2)c1,inconclusive: 23.7%
16,COc1ccc(-c2csc(C(C)(O)c3ccc(F)c(F)c3)n2)cc1OC (stereo unspecified),active: 21.1%
17,O=C(CSc1nc2c([nH]c3ccccc32)c(=O)n1-c1ccc(F)cc1)NCc1ccco1,inconclusive: 22.4%
18,COc1c(C)cc(Br)cc1C(=O)Nc1cccc(-c2nc3ncccc3o2)c1,inconclusive: 34.5%
19,O=C(Nc1ccc(OC(F)(F)F)cc1)C1CCCCN1S(=O)(=O)c1ccccc1 (stereo unspecified),inconclusive: 46.2%
20,O=C(Nc1ccccc1)N1CCCCN2[C@H](CO)[C@H](c3ccc(C#CC4CC4)cc3)[C@H]2C1,active: 33.8%
21,O=[N+]([O-])c1ccccc1S(=O)(=O)N1CCN(CC2CC=CCC2)CC1 (stereo unspecified),inactive: -1.39%
22,O=C(NCC[C@H]1CC[C@H](NC(=O)C2CCOCC2)[C@@H](CO)O1)c1ccc(F)cc1,inactive: 3.47%
23,COc1ccc(OCCC(=O)OCC(=O)NCCC2=CCCCC2)cc1,inactive: -3.01%
24,COc1ccc(NC(=O)N(C)C[C@@H]2Oc3ncc(C#CCC(C)C)cc3C(=O)N([C@@H](C)CO)C[C@@H]2C)cc1,inconclusive: 68.6%

# Exported with bars between the fields: part of the list above.
row | Structure (SMILES) | CPE inhibition
7 | OC[C@@H]1CN(Cc2ccc(Cl)cc2)C[C@H](n2cnc3c(N4CCN(c5ccccc5)CC4)ncnc32)O1 | inconclusive: 26.2%
23 | COc1ccc(OCCC(=O)OCC(=O)NCCC2=CCCCC2)cc1 | inactive: -3.01%

# (cont.)

row,Structure (SMILES),CPE inhibition
1,O=C(NC[C@@H]1N[C@@H](CO)[C@H]1c1ccc(C2=CCCCC2)cc1)c1ccc(F)cc1,active: 51.5%
2,O=C(C[C@@H]1CC[C@@H](NS(=O)(=O)c2ccccc2)[C@H](CO)O1)N1CCC(Cc2ccccc2)CC1,inconclusive: 47.7%
3,O=C(NCc1ccc(F)cc1)c1cnn2ccccc12,inconclusive: 31.7%
4,CCC(=O)N1[C@H](CO)[C@@H](c2ccccc2)[C@@H]1CN(CC)C(=O)c1ccccc1,inactive: -12.3%
5,COc1ccc(/C=C/C(=O)OCC(=O)c2ccc[nH]2)cc1,inactive: 4.47%
6,O=c1c2cc(C(F)(F)F)ccc2sn1-c1ccccc1,inconclusive: 40.6%
7,O=C(CSc1ccc([N+](=O)[O-])cc1)Nc1cccc(S(=O)(=O)N2CCOCC2)c1,inconclusive: 42.2%
8,C/C=C/c1cnc2c(c1)C(=O)N([C@H](C)CO)C[C@@H](C)[C@H](CN(C)C(=O)Nc1c(C)noc1C)O2,inactive: 4.56%
9,O=C(Cc1ccc(F)cc1)OCn1nnc2ccccc2c1=O,inconclusive: 24.4%
10,O=C(COC(=O)c1ccccc1Br)Nc1ccc2[nH]c(=O)[nH]c2c1,inconclusive: 30.6%
11,CC=Cc1ccc2n(c1=O)C[C@@H]1[C@@H](CO)[C@H](C(=O)NC3CCC3)[C@H]2N1Cc1ccncc1 (mixture of isomers),inconclusive: 69.6%
12,COc1ccc(S(=O)(=O)N[C@H]2C=C[C@@H](CC(=O)N3CCc4ccccc4C3)O[C@H]2CO)cc1,inactive: -4.56%
13,N#Cc1ccc(-c2nc3c(Cl)cc(C(F)(F)F)cn3c2Cc2ccsc2)cc1,inactive: -7.78%
14,CCCCNC(=O)Cn1cnc2sc(C)c(S(=O)(=O)N3CCN(c4ccccc4OC)CC3)c2c1=O,inconclusive: 34.9%
15,N#Cc1c(-c2ccccc2)nc(SCC(=O)N2c3ccccc3Sc3ccccc32)[nH]c1=O,inactive: 6.27%
16,COc1ccc(CC(=O)Nc2ccc(N3CCCCC3)cc2)cc1,inconclusive: 20.4%
17,CC[C@]12c3[nH]c4ccccc4c3CCN1C(=O)C(CC(=O)NCCC1=CCCCC1)C[C@@H]2C(=O)N1CCN(C(=O)C2CC2)CC1 (stereo partly specified),active: 54.5%
18,CCn1c(CNC(=O)c2ccc(F)cc2)cc2ccccc21,inconclusive: 32.9%
19,Cc1cccc(Cn2c(N(C)Cc3ccccc3)nc3c2c(=O)[nH]c(=O)n3C)c1,inconclusive: 49.3%
20,CNC(=O)C[C@H]1CC[C@H]2[C@H](COc3ccc(NC(=O)Nc4ccccc4)cc3C(=O)N2C)O1,inconclusive: 25.2%
21,Cc1ccc(S(=O)(=O)NN2C(=O)c3ccccc3NC2c2ccco2)cc1 (stereo unspecified),inconclusive: 21.9%
22,CCOC(=O)CNC(=O)CSc1ncccc1-c1nc2ccccc2[nH]1,inconclusive: 24.4%
23,C[C@@H]1CCCCO[C@H](CN(C)C(=O)Nc2ccccc2)[C@H](C)CN([C@H](C)CO)C(=O)c2cc(NC(=O)c3ccncc3)ccc2O1,inconclusive: 26.9%

# Two records picked at random from those above, as already listed:
row,Structure (SMILES),CPE inhibition
13,N#Cc1ccc(-c2nc3c(Cl)cc(C(F)(F)F)cn3c2Cc2ccsc2)cc1,inactive: -7.78%
3,O=C(NCc1ccc(F)cc1)c1cnn2ccccc12,inconclusive: 31.7%

# From PubChem BioAssay AID651640 (Broad Institute, 2012)
